Results as given in US12295967B2, “Pharmaceutical composition for prevention or treatment of flavivirus infection” (priority 2018, dated 2025).
Where a name gives a salt, the structure may show the parent alone.

Biological target: T1, dengue virus RdRp (Dengue virus type 2, UniProt P29990)
T1 construct: dengue virus RdRp enzyme activity
Assay: biochemical
Conditions: dengue virus RdRp enzyme activity; read-out: IC50, inhibitory target enzyme RdRp

CSc1ccc2c(c1)N(CCC1CCCCN1C)c1ccccc1S2 (stereo not shown) [Thioridazine HCl]
IC50: 28.1 µM
